Experimental data taken from paper PMC10607241.
Results are given in words; binding and its absence hold for the method and conditions named. Some results given as binding are weak or reduced against the parent protein; the word gives no strength. Where a sequence is shown, tags or fusion partners need not be part of it.

Sequences of proteins named here, by UniProt entry; tags and fusion partners are left off. Residues count along the entry.
UniProt P08121, residues 155-1219: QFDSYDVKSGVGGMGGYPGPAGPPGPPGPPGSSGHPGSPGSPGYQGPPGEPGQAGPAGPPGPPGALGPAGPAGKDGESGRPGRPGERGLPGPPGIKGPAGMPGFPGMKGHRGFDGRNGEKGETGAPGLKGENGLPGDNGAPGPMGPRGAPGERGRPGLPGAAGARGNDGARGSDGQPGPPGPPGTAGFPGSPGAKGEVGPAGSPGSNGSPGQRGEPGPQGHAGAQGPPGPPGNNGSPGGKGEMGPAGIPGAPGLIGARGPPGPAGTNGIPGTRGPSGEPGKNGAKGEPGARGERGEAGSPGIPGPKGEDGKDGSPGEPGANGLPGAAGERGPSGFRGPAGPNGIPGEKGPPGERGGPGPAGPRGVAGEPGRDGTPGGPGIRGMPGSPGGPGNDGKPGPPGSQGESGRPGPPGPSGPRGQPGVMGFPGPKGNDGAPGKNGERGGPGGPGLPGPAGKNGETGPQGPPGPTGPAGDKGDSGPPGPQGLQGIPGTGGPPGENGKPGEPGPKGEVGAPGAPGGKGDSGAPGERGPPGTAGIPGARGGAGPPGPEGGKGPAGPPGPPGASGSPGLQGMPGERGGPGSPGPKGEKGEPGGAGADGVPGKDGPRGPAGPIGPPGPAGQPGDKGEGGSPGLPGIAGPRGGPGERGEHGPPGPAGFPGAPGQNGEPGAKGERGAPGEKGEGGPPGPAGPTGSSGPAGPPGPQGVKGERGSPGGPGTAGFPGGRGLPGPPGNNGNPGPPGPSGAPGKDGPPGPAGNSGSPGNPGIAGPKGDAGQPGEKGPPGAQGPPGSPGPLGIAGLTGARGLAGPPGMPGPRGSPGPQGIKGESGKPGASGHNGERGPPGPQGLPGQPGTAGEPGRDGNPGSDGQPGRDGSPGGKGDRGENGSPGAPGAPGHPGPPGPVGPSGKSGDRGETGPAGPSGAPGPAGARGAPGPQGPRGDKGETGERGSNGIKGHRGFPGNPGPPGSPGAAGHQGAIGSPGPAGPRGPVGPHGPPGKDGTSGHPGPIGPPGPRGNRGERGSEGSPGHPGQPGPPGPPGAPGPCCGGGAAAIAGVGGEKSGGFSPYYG

Target: purified, pepsin-treated, full-length collagen III (mouse (adult murine skin)) (UniProt P08121)
Assay: ELISA; ELISA-like assay; Toolkit peptides coated at 10 µg/mL (1.0 µg/well) in 20 mM acetic acid overnight at 4 °C, collagen III at 5.0 µg/well; blocked with 5% BSA in HBST; 25 µM His-FKBP22 overnight at 4 °C in HBS (10 mM HEPES, pH 7.4, 0.15 M NaCl, 1 mM CaCl2); detected with HRP-conjugated 6xHis-tag antibody; A450, mean of the five lowest signals subtracted as baseline; both purified

binding: binds
B1: recombinant human FKBP22 with an amino terminal His-tag (His-FKBP22) (enzyme, UniProt Q9NWM8 20-211)
chain: ALIPEPEVKIEVLQKPFICHRKTKGGDLMLVHYEGYLEKDGSLFHSTHKHNNGQPIWFTLGILEALKGWDQGLKGMCVGEKRKLIIPPALGYGKEGKGKIPPESTLIFNIDLLEIRNGPRSHESFQEMDLNDDWKLSKDEVKAYLKKEFEKHGAVVNESHHDALVEDIFDKEDEDKDGFISAREFTYKHDEL
